In the supplement of paper PMC10338343:
± gives the standard deviation. Only a part is listed here, and it is no random draw. Many of these values have a large error. The list shows a part of the results.

Experiments:
[1] = test system: MILI (PIWIL2) piRISC loaded with L1MC piRNA (26 nt); test: pre-steady-state target cleavage rate (min^-1); higher = faster piRNA-guided slicing of the target; conditions: guide: L1MC piRNA 5'p-UAACUAAAUACUAUGCAAGCUGUAGG
Method in brief: (§1)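 Using HEPES–potassium acetate buffer at 33 °C, 1 nM active affinity-purified piRISC with a single synthetic guide was mixed with 0.1 nM transcribed, DNA-blocked target RNA library for 0–8 or 0–960 min, with or without 500 nM GTSF1 partner protein. Uncleaved targets were sequenced and normalised to depth and to weakly complementary targets, and three trials were pooled with k3 capped at 0.0001 min^-1. A burst-and-steady-state fit gave the pre-steady-state cleavage rate.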

[2] = test system: MIWI (PIWIL1) piRISC loaded with L1MC piRNA (30 nt); test: as above; conditions: guide: L1MC piRNA 5'p-UAACUAAAUACUAUGCAAGCUGUAGGUCCU
Method in brief: as §1

[3] = test system: EfPiwi piRISC loaded with L1MC piRNA (26 nt); test: pre-steady-state target cleavage rate (min^-1); guide: L1MC piRNA 5'p-UAACUAAAUACUAUGCAAGCUGUAGG; MIWI and MILI are mouse PIWI proteins and EfPiwi is from a freshwater sponge; tags in brackets are library labels; higher = faster piRNA-guided slicing of the target
Method in brief: as §1

[4] = auxiliary factor: none (no GTSF1)
[5] = auxiliary factor: 500 nM Ephydatia muelleri Gtsf1
[6] = auxiliary factor: none (no Gtsf1)
[7] = auxiliary factor: 500 nM mouse GTSF1

Sequence | pre-steady-state target cleavage rate [1, 4] | pre-steady-state target cleavage rate [2, 4] | pre-steady-state target cleavage rate [3, 5] | pre-steady-state target cleavage rate [3, 6] | pre-steady-state target cleavage rate [1, 7] | pre-steady-state target cleavage rate [2, 7]
UCCUGGUACAGCUUGCAUAGUAUAUUCAAA | 0.00249 ± 0.0034 | 0.00133 ± 0.0077 | 0.00341 ± 0.0028 | 0.000817 ± 0.011 | – | –
UCCUGCUACAGCUUGCAUAGUAUAAACAAA | 0.000636 ± 0.0086 | 0.000396 ± 0.0076 | 0.00142 ± 0.0034 | 0.000123 ± 0.022 | – | –
UCCUGGAUCAGCUUCGAUAGUAUUUAGUAA | 0.00109 ± 0.0076 | 0.00148 ± 0.0041 | 0.000629 ± 0.0058 | 0.000506 ± 0.013 | – | –
UCCUGGAUCAGCAAGCAUAGUAUUUAGAAA | 0.00136 ± 0.0051 | 0.00135 ± 0.0049 | 0.00126 ± 0.0036 | 0.000182 ± 0.037 | – | –
UCCUGCUACAGCUUGCAUAGUAAUAAGUUA | 0.00154 ± 0.0043 | 0.00163 ± 0.0041 | 0.0044 ± 0.002 | 0.000518 ± 0.01 | – | –
UCCUGGAUGUGCUUGCAUAGUAUUAUCUAA | 0.000714 ± 0.0088 | 0.00107 ± 0.0062 | 0.000488 ± 0.0061 | 0.000538 ± 0.011 | – | –
UCCUGCUACAGCAAGCAUAGUAUUUACAAA | 0.00108 ± 0.0058 | 0.000594 ± 0.012 | 0.00214 ± 0.0051 | 0.000386 ± 0.023 | – | –
UCCUGGUACAGCUUGCAUCAGUAUUUAGUUA | 0.00173 ± 0.0047 | 0.00173 ± 0.0059 | 0.00147 ± 0.0039 | 0.000707 ± 0.013 | – | –
UCCUGCUACAGCUUGCAUUGUAUUUAGAAA | 0.00126 ± 0.0053 | 0.00211 ± 0.003 | 0.00474 ± 0.0017 | 0.000293 ± 0.014 | – | –
UCCUGGAUGAGCUUGCUAAGUAUUUACAAA | 0.00099 ± 0.0071 | 0.00138 ± 0.0061 | 0.000399 ± 0.011 | 0.00104 ± 0.01 | – | –
UCCUGGAUGUCGAUGCAUUGUAUUUAGAUA | – | – | 0.000144 ± 0.023 | 0.000373 ± 0.022 | 0.000247 ± 0.037 | 0.000216 ± 0.041
UCCUGGAACAGCUUCGUUAGUAUUUAGUAA | 0.00152 ± 0.0041 | 0.00134 ± 0.0049 | 0.000349 ± 0.011 | 0.000298 ± 0.016 | – | –
UCCUGGAACAGCUUGCAUAGUUUUUACAAA | 0.000893 ± 0.007 | 0.00198 ± 0.0032 | 0.000834 ± 0.0053 | 0.000447 ± 0.019 | – | –
UCCUGCUACAGCUUGCAUAGUAAAUAGAAA | 0.000765 ± 0.0089 | 0.000333 ± 0.011 | 0.00185 ± 0.0022 | 0.000342 ± 0.025 | – | –
UCCUGGAACAGCUUGGAUAGUAUUUACAAA | 0.000685 ± 0.006 | 0.00151 ± 0.0045 | 0.00254 ± 0.0019 | 0.000265 ± 0.028 | – | –
UCCUGCUACAGGAAGCAUAGUAUUUUCAAA | 0.000135 ± 0.021 | 0.000393 ± 0.019 | 0.00026 ± 0.015 | 0.000195 ± 0.026 | – | –
UCCUGGAUGUCCUUGCAUAGUAUUUUGUAA | 0.000748 ± 0.0072 | 0.000846 ± 0.0068 | 0.002 ± 0.0048 | 0.000357 ± 0.018 | – | –
UCCUCCUACAGCUUCGAUAGUAUUUACAAA | 0.000474 ± 0.0091 | 0.000241 ± 0.012 | 0.00182 ± 0.0031 | 0.000231 ± 0.02 | – | –
UCCUGGAACACCUUGCAUAGUAUUUACAAA | 0.00121 ± 0.0049 | 0.00243 ± 0.0034 | 0.003 ± 0.0033 | 0.000823 ± 0.014 | – | –
UCCUGGAACAGCUUGCAAUGUAUUUAGAAA | 0.00163 ± 0.0045 | 0.00321 ± 0.0033 | 0.00187 ± 0.0053 | 0.000764 ± 0.013 | – | –
UCCUGCUACAGCUUGCAUAGUAAAUAGUAA | 0.00101 ± 0.0056 | 0.00194 ± 0.0035 | 0.00351 ± 0.0022 | 0.00014 ± 0.038 | – | –
UCCUGGAUGAGCUUGCAUAGUAAUAAGUUA | 0.00182 ± 0.004 | 0.000633 ± 0.0061 | 0.00134 ± 0.0043 | 0.000681 ± 0.011 | – | –

Looked up one by one from the list above, two records:
Sequence | pre-steady-state target cleavage rate [1, 4] | pre-steady-state target cleavage rate [2, 4] | pre-steady-state target cleavage rate [3, 5] | pre-steady-state target cleavage rate [3, 6] | pre-steady-state target cleavage rate [1, 7] | pre-steady-state target cleavage rate [2, 7]
UCCUGGUACAGCUUGCAUCAGUAUUUAGUUA | 0.00173 ± 0.0047 | 0.00173 ± 0.0059 | 0.00147 ± 0.0039 | 0.000707 ± 0.013 | – | –
UCCUGGAUCAGCAAGCAUAGUAUUUAGAAA | 0.00136 ± 0.0051 | 0.00135 ± 0.0049 | 0.00126 ± 0.0036 | 0.000182 ± 0.037 | – | –

Next part:

Sequence | pre-steady-state target cleavage rate [1, 4] | pre-steady-state target cleavage rate [2, 4] | pre-steady-state target cleavage rate [3, 5] | pre-steady-state target cleavage rate [3, 6] | pre-steady-state target cleavage rate [1, 7] | pre-steady-state target cleavage rate [2, 7]
UCCUGGUACAGGAAGCAUAGUAUUUAGAAA | 0.000471 ± 0.0082 | 0.000991 ± 0.0048 | 0.00226 ± 0.0043 | < 0.0001 | – | –
UCCUGGAACAGCUUCCAUAGUAUUAAGUUA | 0.000459 ± 0.014 | 0.000817 ± 0.0088 | 0.000954 ± 0.0035 | < 0.0001 | – | –
UCCUGGAUGAGCUUCCAUAGUAUUUAGUUA | 0.00124 ± 0.0041 | 0.00169 ± 0.0034 | 0.00346 ± 0.0018 | 0.000352 ± 0.028 | – | –
UCCUGGAUGUCCUUGGAUAGAAUUUAGUUA | 0.00175 ± 0.0039 | 0.000712 ± 0.0085 | 0.000485 ± 0.0097 | 0.00016 ± 0.015 | – | –
UCCUCCUACAGCUUGCAUAGUAUUUGUUA | 0.00164 ± 0.0044 | 0.00166 ± 0.0043 | 0.00561 ± 0.0026 | 0.00103 ± 0.0068 | – | –
UCCUGGAUGUGCUUGGUAAGUAUUUAGAAA | 0.000491 ± 0.012 | 0.000649 ± 0.012 | 0.00031 ± 0.015 | 0.000329 ± 0.033 | – | –
UCCUGGUACAGCUUGGUUAGUAUUUAGAAA | 0.0017 ± 0.0044 | 0.00172 ± 0.0043 | 0.00217 ± 0.0032 | < 0.0001 | – | –
UCCUGGAUGUCCUUGCAUAGAUAUUAGUAA | 0.000288 ± 0.018 | 0.000641 ± 0.009 | 0.00116 ± 0.0064 | 0.000207 ± 0.022 | – | –
UCCUCCUACAGCUUGCAUAGAUUUAGUUA | 0.00147 ± 0.004 | 0.000381 ± 0.0089 | 0.00442 ± 0.0029 | 0.000586 ± 0.009 | – | –
UCCUGCUACAGCUUCGUUAGUAUUUUCAAA | 0.000335 ± 0.013 | 0.000103 ± 0.032 | 0.00013 ± 0.026 | < 0.0001 | – | –
UCCUGGAUGUGCUUGCAUAGUAUUAAGAAA | 0.00115 ± 0.0056 | 0.0019 ± 0.0036 | 0.00125 ± 0.0034 | 0.00087 ± 0.0087 | – | –
UCCUGGAUGUGCUUCCAUAGUAUUUAGUUA | 0.00208 ± 0.0032 | 0.00222 ± 0.0026 | 0.00277 ± 0.0019 | 0.0006 ± 0.013 | – | –
UCCUGGAACAGCUUGCAUAGUAAAAAGAAA | 0.000983 ± 0.0073 | 0.00152 ± 0.0061 | 0.00331 ± 0.0034 | 0.00072 ± 0.012 | – | –
UCCUCCUACAGCUACCAUAGUAUUUAGUAA | 0.00199 ± 0.0031 | 0.000806 ± 0.0057 | 0.00215 ± 0.0023 | 0.000208 ± 0.024 | – | –
UCCUGGUACAGCUUGCAUAGUUAAUAGUAA | 0.00174 ± 0.0046 | 0.00368 ± 0.004 | 0.000889 ± 0.0047 | 0.00046 ± 0.02 | – | –
UCCUGGAUGUGCUUGCUUAGUAUUUAGAAA | 0.00179 ± 0.0032 | 0.00232 ± 0.0039 | 0.00127 ± 0.0056 | 0.000408 ± 0.021 | – | –
UCCUGGAUCAGCUUGCCAUAGUAUUUAGUUA | 0.00101 ± 0.0065 | 0.00119 ± 0.0043 | 0.00658 ± 0.0025 | 0.00057 ± 0.011 | – | –
UCCUGGUACAGCUUGCUUAGUAUUUUCAAA | 0.00157 ± 0.0043 | 0.000945 ± 0.0046 | 0.000633 ± 0.011 | 0.00035 ± 0.024 | – | –
UCCUGGUACAGCUUGCAUAGAUUUUUCAAA | 0.00148 ± 0.0071 | 0.000277 ± 0.012 | 0.00074 ± 0.0078 | 0.000349 ± 0.035 | – | –
UCCUCCUACAGCUUGCAUAGUUAUUAGAAA | 0.000804 ± 0.0065 | 0.00117 ± 0.0063 | 0.00348 ± 0.0028 | 0.000858 ± 0.0073 | – | –
UCCUGGAUGUGCUUGCAUACUAUUUAGAAA | 0.000715 ± 0.0076 | 0.00199 ± 0.004 | 0.00185 ± 0.0019 | 0.000259 ± 0.027 | – | –
UCCUGGUACAGCAACCAUAGUAUUUAGUUA | – | 0.00108 ± 0.0044 | 0.00171 ± 0.0033 | 0.000718 ± 0.0086 | 0.286 ± 0.042 | –
